Experimental data: publication PMC10734772 (Turkish Journal of Chemistry, 2021)

Assays:
K562 = assay: MTT assay, K562 cells; type: cell-based; details: Homo sapiens, 24 h, range 0.3–200 μM, six replicates
Protocol: (§1) K562, Jurkat, Molt-4, and Nalm-6 cell lines were cultured in RPMI-1640 medium (ECM2001, Euroclone), Reh cell line was cultured in DMEM medium (LM-D1111-Biosera) Hek293T cell line was cultured in IMDM medium (AL070A - HiMedia) supplemented with 10% heat-inactivated fetal bovine serum (F7524-Merck & Co., USA,) penicillin and streptomycin (P4333-Sigma Aldrich). K562, Jurkat and Molt-4 cell lines were seeded as 4x10^5/ml, Reh and Nalm-6 cell lines were seeded 5x10^5/ml, Hek293T cell line was seed as 2x10^5/ml. All cells were incubated at 5% CO2 and 37 °C. All cell lines were kindly provided by Dr. M. Sayitoglu and Dr. Ö. Hatirnaz-Ng from Acibadem University.
(§2) MTT assay is a 3-day test. […]
(§3) After incubation (on the third day), to precipitate leukemia cells, the cell plate was centrifuged at 1500 rpm for 5 min. […] Then the optical density of each well was measured by using Thermo VarioSkan Flush Multimode Reader Quantum ST5-1100 at 570 nm wavelength.
(§4) Subsequently, viability rate of the cells at each concentration, as percentage, was determined by following formula (1): […]
(§5) The IC50 values were calculated by using GraphPad Prism. […] Results were analyzed and illustrated with Graph Pad Prism (version 5; GraphPad Software, San Diego, CA, USA). […]

Nalm-6 = assay: MTT assay, Nalm-6 cells; type: cell-based; details: Homo sapiens; Nalm-6, MTT, 24 h, range 0.3–200 μM, six replicates
Protocol: as §1, §2, §3, §4, §5

IC50 (K562): 78.4 µM
SMILES: Cc1ccc(NC(=O)c2ccc(CN3CCN(C)CC3)cc2)cc1Nc1nccc(-c2cccnc2)n1 [imatinib, reference compound]
IC50 (Nalm-6): 16.1 µM
